In patent US20250113823A1, “Arthropod Control Compositions” (priority 2022, published 2025):
Some results were stated once for a whole list of compounds, not compound by compound.

Tests used:
Aedes aegypti [1] = test: Warm Body assay, mosquito landings on treated warm body; format: in vivo; conditions: for reduce the number of landings: highest tested concentration (1%) (Table 1)
Description: The arthropod controlling effect according to the present invention is determined on mosquitoes using an adapted Warm Body assay as defined in Kröber T, Kessler S, Frei J, Bourquin M, Guerin PM. An in vitro assay for testing mosquito controlling compounds employing a warm body and carbon dioxide as a behavioral activator. J Am Mosq Control Assoc. 2010; 26: 381-386. Further information is provided in the accompanying examples
The controlling effect, repellence & spatial repellence, according to the present invention is determined by testing the Warm Body assay against the yellow fever mosquito, Aedes aegypti Rockefeller strain. […] Observations of controlling efficacy were made on host-seeking females of uniform age, 5 to 10 days old selected as mentioned in the publication mentioned hereinabove. Tested hungry females had access to 10% sugar solution but were not blood-fed. Further information is provided in the accompanying examples.
The published protocol has been adapted in not manually counting the landing mosquitoes but automatically using an automatic counting software, the switch from Anopheles gambiae to A. aegypti led to a decrease of mosquitoes' number placed in the tested cage due to the size difference (i.e. 30 mosquitoes instead of 50) and to an increase of lighting as A. aegypti is a diurnal mosquitoes (i.e. 150 lux instead of 4 lux). Further information is provided in the accompanying examples. […]
The controlling effect according to the present invention was assessed using an adapted Warm Body assay as defined in Kröber T, Kessler S, Frei J, Bourquin M, Guerin P M. 2010. J Am Mosq Control Assoc. 26: 381-386. In this in-vitro assay the number of mosquito landing on a warm body, simulating an attractive host treated with the tested stimuli, was measured in order to assess the repellence effect.
The published protocol has been adapted as the switch from Anopheles gambiae to Aedes aegypti led to a decrease of mosquitoes placed in the tested cage due to the size difference (i.e. 30 mosquitoes instead of 50) and to an increase of lighting since A. aegypti is a diurnal mosquitoes (i.e. 150 lux instead of 4 lux).
On the sandblasted glass Petri dish covering the warm body (28.3 cm^2), 100 μL of the compounds diluted at different concentrations in ethanol was applied. The number of mosquito landing on the warm body was counted for each stimulus and pure ethanol (solvent) as control.

Aedes aegypti [2] = test: Double (dual) chamber assay, spatial repellence; format: in vivo; conditions: within the first 10 min of injection
Description: FIG. 1: Percentage of mosquitoes Aedes aegypti escaping over time the chamber treated with a stimulus. The four stimuli were the solvent propan-1,2-diol (grey triangles and dotted line), N,N-diethyl-meta-toluamide (medium grey diamonds), 2,6-dimethoxy-4-methylphenol (light gray squares) and 1,2,3-trimethoxy-5-propylbenzene (black circles). Each stimulus was injected during 40 min thanks to a forced evaporation system in the treated chamber containing the mosquitoes, causing their movement toward the untreated refuge chamber. Each point represents the mean number of mosquitoes in the untreated chamber (n=57, 6, 4 and 4 respectively)±SD at 10 min intervals.
The goal of this assay was to reproduce at a smaller scale the validation test for spatial repellent as described in WHO (2013; ISBN 978 92 4 150502 4).
The assay consists of a transparent cage (1200×755×700 mm; ˜0.63 m^3) covered by white paper. This cage is divided in two chambers of equal dimensions by a plasticized paper wall with square opening (200×200 mm) situated in the middle of the wall. At the beginning of the experiment, about 40 two-weeks old female Aedes aegypti mosquitoes are placed in the right chambers. […] Ten, 20, 30 and 40 minutes after the start of the stimulus injection, the number of mosquitoes that have moved to the untreated chamber is manually counted.

[3] = dose of 1%, from 29 landings/min (Table 2)
[4] = all concentrations above 0.0178% (Table 1)

SMILES	reduce the number of landings (Aedes aegypti [1])	number of mosquito landings (Aedes aegypti [1]; [3])	number of mosquito landings (Aedes aegypti [1]; [4])	further results
CC=Cc1cc(OC)c(O)c(OC)c1 [compound 1124, 2,6-dimethoxy-4-[prop-1-enyl]phenol]	> 90%			
CC=Cc1cc(OC)c(O)c(OC)c1 [compound 1127, 2,6-dimethoxy-4-prop-1-enylphenol]		< 1 landing/min		
COC(=O)Oc1ccc(C)cc1OC [compound 1141, (2-methoxy-4-methylphenyl) methyl carbonate]	> 90%			
C=CCc1cc(OC)c(O)c(OC)c1 [compound 1191, 4-allyl-2,6-dimethoxyphenol]	> 90%		< 5 landings/minute	
COc1ccc(OC)c(OC)c1 [compound 1201, 1,2,4-trimethoxybenzene]		< 1 landing/min		
CCCc1cc(OC)c(O)c(OC)c1 [compound 1502, 2,6-dimethoxy-4-propylphenol]	> 90%		< 5 landings/minute	
COc1cc(C)cc(OC)c1O [compound 1537, 2,6-dimethoxy-4-methylphenol]		< 1 landing/min		mosquitoes forced to move to the untreated chamber (Aedes aegypti [2]): > 30%
COc1ccc(C=O)c(OC)c1 [compound 1558, 2,4-dimethoxybenzaldehyde]				repellent effect (Aedes aegypti [1]; concentration of 0.0016% (Table 3)): above 80%
CCCc1cc(OC)c(OC)c(OC)c1 [compound 1975, 1,2,3-trimethoxy-5-propylbenzene]	> 90%		< 5 landings/minute	mosquitoes forced to move to the untreated chamber (Aedes aegypti [2]): > 30%
COc1cc(C=NCCN=Cc2cc(OC)c(OC)c(OC)c2)cc(OC)c1OC [compound 1980, 1-(3,4,5-trimethoxyphenyl)-N-[2-[(3,4,5-trimethoxyphenyl)methylideneamino]ethyl]methanimine]	> 90%			
